Test results from paper doi:10.1101/2022.06.22.497213.

Molecular target: T1, full-length FBF-2 fused to the Gal4 DNA-binding domain (C. elegans) (UniProt Q09312)
T1 sequence: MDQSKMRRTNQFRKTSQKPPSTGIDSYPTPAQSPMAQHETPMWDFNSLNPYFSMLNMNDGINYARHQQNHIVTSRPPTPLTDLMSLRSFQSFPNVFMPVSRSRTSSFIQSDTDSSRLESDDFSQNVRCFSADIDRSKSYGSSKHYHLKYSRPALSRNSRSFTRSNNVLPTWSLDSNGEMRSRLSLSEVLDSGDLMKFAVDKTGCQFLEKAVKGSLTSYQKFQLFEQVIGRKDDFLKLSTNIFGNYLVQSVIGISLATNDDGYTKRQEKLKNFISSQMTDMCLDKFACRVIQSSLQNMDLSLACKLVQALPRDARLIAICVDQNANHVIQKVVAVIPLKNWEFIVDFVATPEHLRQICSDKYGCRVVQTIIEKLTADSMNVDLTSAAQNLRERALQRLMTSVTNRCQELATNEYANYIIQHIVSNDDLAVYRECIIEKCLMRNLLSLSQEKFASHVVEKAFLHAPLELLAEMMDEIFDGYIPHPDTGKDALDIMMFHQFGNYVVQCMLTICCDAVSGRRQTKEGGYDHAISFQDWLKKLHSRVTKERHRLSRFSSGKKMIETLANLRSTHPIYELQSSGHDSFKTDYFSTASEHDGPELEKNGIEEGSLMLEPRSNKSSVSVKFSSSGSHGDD
Experiment: two-hybrid

With “SYGL-1 (prey of the two-hybrid library) (C. elegans)” the binding was “binds”.

No constants are given. Whether binding was seen depends on the method and setting. Binding calls can cover weak binding; strength is not graded here. Tags and fused reporters may be left off the sequences shown.
